# Laboratory results: patent US11541107B2, “Peptides and T cells for use in immunotherapeutic treatment of various cancers” (Immatics Biotechnologies GmbH, priority 2015, dated 2023)
# Expression grades refer to the transcript from which the peptide derives; gene names, where given, were looked up from the sequence.
# Tested on: source genes of the peptides
# Test: Target coverage of source genes based on TCGA Research Network expression data
# Design: species or system human
# Conditions: for Target coverage, over-expression category of source gene, SARC: Sarcoma (N = 263); for Target coverage, over-expression category of source gene, SKCM: Skin cutaneous melanoma (N = 473); for Target coverage, over-expression category of source gene, STAD: Stomach adenocarcinoma (N = 415); for Target coverage, over-expression category of source gene, TGCT: Testicular germ cell tumors (N = 156); for Target coverage, over-expression category of source gene, THYM: Thymoma (N = 120); for Target coverage, over-expression category of source gene, UCS: Uterine carcinosarcoma (N = 57); for Target coverage, over-expression category of source gene, UCEC: Uterine corpus endometrial carcinoma (N = 546); for Target coverage, over-expression category of source gene, STAD (N = 415): Stomach adenocarcinoma; for Target coverage, over-expression category of source gene, THCA: Thyroid carcinoma (N = 513); for Target coverage, over-expression category of source gene, TGCT (N = 156): Testicular germ cell tumors; for Target coverage, over-expression category of source gene, THYM (N = 120): Thymoma; for Target coverage, over-expression category of source gene, UCS (N = 57): Uterine carcinosarcoma; for Target coverage, over-expression category of source gene, UCEC (N = 546): Uterine corpus endometrial carcinoma; for Target coverage, over-expression category of source gene, PRAD (N = 498): Prostate adenocarcinoma; for Target coverage, over-expression category of source gene, SARC (N = 263): Sarcoma; for Target coverage, over-expression category of source gene, UVM (N = 80): Uveal melanoma
# [1] = cutoff more than 2-fold above highest 75% percentile of normal organs
substance,measurement,setting,value
397: peptide found in KIF2C (gene looked up) (IYNGKLFDL; listed as Homo sapiens) [compound 397],"Target coverage, over-expression category of source gene, SARC",,"B (>=20% of tumors above the cutoff, but <50%)"
same,"Target coverage, over-expression category of source gene, SKCM",,"B (>=20% of tumors above the cutoff, but <50%)"
same,"Target coverage, over-expression category of source gene, STAD",,"B (>=20% of tumors above the cutoff, but <50%)"
same,"Target coverage, over-expression category of source gene, TGCT",,A (>=50% of tumors above the cutoff)
same,"Target coverage, over-expression category of source gene, THYM",,A (>=50% of tumors above the cutoff)
same,"Target coverage, over-expression category of source gene, UCS",,A (>=50% of tumors above the cutoff)
same,"Target coverage, over-expression category of source gene, UCEC",,"B (>=20% of tumors above the cutoff, but <50%)"
130: peptide found in MOB1A (gene looked up) (VYAHIYHQHF; listed as Homo sapiens) [compound 130],"Target coverage, over-expression category of source gene, STAD (N = 415)",[1],"C (>=5% of tumors above the cutoff, but <20%)"
352: peptide found in ITGA2 (gene looked up) (QYGGDLTNTF; listed as Homo sapiens) [compound 352],"Target coverage, over-expression category of source gene, STAD",,"C (>=5% of tumors above the cutoff, but <20%)"
same,"Target coverage, over-expression category of source gene, THYM",,"C (>=5% of tumors above the cutoff, but <20%)"
same,"Target coverage, over-expression category of source gene, THCA",,"C (>=5% of tumors above the cutoff, but <20%)"
320: peptide found in AURKA (gene looked up) (KFILALKVLF; listed as Homo sapiens) [compound 320],"Target coverage, over-expression category of source gene, TGCT (N = 156)",[1],A (>=50% of tumors above the cutoff)
same,"Target coverage, over-expression category of source gene, THYM (N = 120)",[1],"C (>=5% of tumors above the cutoff, but <20%)"
same,"Target coverage, over-expression category of source gene, UCS (N = 57)",[1],A (>=50% of tumors above the cutoff)
same,"Target coverage, over-expression category of source gene, UCEC (N = 546)",[1],"C (>=5% of tumors above the cutoff, but <20%)"
129: peptide found in MOB1A (gene looked up) (KYIDYLMTW; listed as Homo sapiens) [compound 129],"Target coverage, over-expression category of source gene, STAD (N = 415)",[1],"C (>=5% of tumors above the cutoff, but <20%)"
172: peptide found in MMP10 (gene looked up) (VFIFKGNEF; listed as Homo sapiens) [compound 172],"Target coverage, over-expression category of source gene, PRAD (N = 498)",[1],"C (>=5% of tumors above the cutoff, but <20%)"
same,"Target coverage, over-expression category of source gene, UCS (N = 57)",[1],"C (>=5% of tumors above the cutoff, but <20%)"
same,"Target coverage, over-expression category of source gene, UCEC (N = 546)",[1],"C (>=5% of tumors above the cutoff, but <20%)"
415: peptide found in PBK (gene looked up) (SYQKVIELF; listed as Homo sapiens) [compound 415],"Target coverage, over-expression category of source gene, SARC",,"C (>=5% of tumors above the cutoff, but <20%)"
same,"Target coverage, over-expression category of source gene, SKCM",,"B (>=20% of tumors above the cutoff, but <50%)"
same,"Target coverage, over-expression category of source gene, STAD",,"B (>=20% of tumors above the cutoff, but <50%)"
same,"Target coverage, over-expression category of source gene, TGCT",,"C (>=5% of tumors above the cutoff, but <20%)"
same,"Target coverage, over-expression category of source gene, THYM",,"C (>=5% of tumors above the cutoff, but <20%)"
same,"Target coverage, over-expression category of source gene, UCS",,"C (>=5% of tumors above the cutoff, but <20%)"
same,"Target coverage, over-expression category of source gene, UCEC",,"C (>=5% of tumors above the cutoff, but <20%)"
394: peptide found in FANCI (gene looked up) (FYQPKIQQF; listed as Homo sapiens) [compound 394],"Target coverage, over-expression category of source gene, SARC",,"B (>=20% of tumors above the cutoff, but <50%)"
same,"Target coverage, over-expression category of source gene, SKCM",,"B (>=20% of tumors above the cutoff, but <50%)"
same,"Target coverage, over-expression category of source gene, STAD",,"B (>=20% of tumors above the cutoff, but <50%)"
same,"Target coverage, over-expression category of source gene, TGCT",,A (>=50% of tumors above the cutoff)
same,"Target coverage, over-expression category of source gene, THYM",,A (>=50% of tumors above the cutoff)
same,"Target coverage, over-expression category of source gene, UCS",,"B (>=20% of tumors above the cutoff, but <50%)"
same,"Target coverage, over-expression category of source gene, UCEC",,"B (>=20% of tumors above the cutoff, but <50%)"
162: peptide found in IFNG (gene looked up) (KYTSYILAF; listed as Homo sapiens) [compound 162],"Target coverage, over-expression category of source gene, SARC (N = 263)",[1],"C (>=5% of tumors above the cutoff, but <20%)"
same,"Target coverage, over-expression category of source gene, STAD (N = 415)",[1],"C (>=5% of tumors above the cutoff, but <20%)"
same,"Target coverage, over-expression category of source gene, THYM (N = 120)",[1],"C (>=5% of tumors above the cutoff, but <20%)"
same,"Target coverage, over-expression category of source gene, UCEC (N = 546)",[1],"C (>=5% of tumors above the cutoff, but <20%)"
173: peptide found in MMP10 (gene looked up) (QYLEKYYNL; listed as Homo sapiens) [compound 173],"Target coverage, over-expression category of source gene, PRAD (N = 498)",[1],"C (>=5% of tumors above the cutoff, but <20%)"
same,"Target coverage, over-expression category of source gene, UCS (N = 57)",[1],"C (>=5% of tumors above the cutoff, but <20%)"
same,"Target coverage, over-expression category of source gene, UCEC (N = 546)",[1],"C (>=5% of tumors above the cutoff, but <20%)"
180: peptide found in OXTR (gene looked up) (KYLQVVGMF; listed as Homo sapiens) [compound 180],"Target coverage, over-expression category of source gene, SARC (N = 263)",[1],"C (>=5% of tumors above the cutoff, but <20%)"
same,"Target coverage, over-expression category of source gene, STAD (N = 415)",[1],"C (>=5% of tumors above the cutoff, but <20%)"
same,"Target coverage, over-expression category of source gene, TGCT (N = 156)",[1],"C (>=5% of tumors above the cutoff, but <20%)"
same,"Target coverage, over-expression category of source gene, THYM (N = 120)",[1],"C (>=5% of tumors above the cutoff, but <20%)"
same,"Target coverage, over-expression category of source gene, UCS (N = 57)",[1],"C (>=5% of tumors above the cutoff, but <20%)"
same,"Target coverage, over-expression category of source gene, UCEC (N = 546)",[1],"C (>=5% of tumors above the cutoff, but <20%)"
277: peptide found in TDG (gene looked up) (FYTFPFQQL; listed as Homo sapiens) [compound 277],"Target coverage, over-expression category of source gene, STAD (N = 415)",[1],"C (>=5% of tumors above the cutoff, but <20%)"
same,"Target coverage, over-expression category of source gene, UCEC (N = 546)",[1],"C (>=5% of tumors above the cutoff, but <20%)"
124: peptide found in PRKDC (gene looked up) (TYKDYVDLF; listed as Homo sapiens) [compound 124],"Target coverage, over-expression category of source gene, SARC (N = 263)",[1],"C (>=5% of tumors above the cutoff, but <20%)"
same,"Target coverage, over-expression category of source gene, SKCM (N = 473)","Skin cutaneous melanoma, cutoff more than 2-fold above highest 75% percentile of normal organs","C (>=5% of tumors above the cutoff, but <20%)"
same,"Target coverage, over-expression category of source gene, UVM (N = 80)",[1],"C (>=5% of tumors above the cutoff, but <20%)"
404: peptide found in MMP12 (gene looked up) (RYLEKFYGL; listed as Homo sapiens) [compound 404],"Target coverage, over-expression category of source gene, STAD",,"B (>=20% of tumors above the cutoff, but <50%)"
same,"Target coverage, over-expression category of source gene, TGCT",,"B (>=20% of tumors above the cutoff, but <50%)"
145: peptide found in CCR8 (gene looked up) (VYALKVRTI; listed as Homo sapiens) [compound 145],"Target coverage, over-expression category of source gene, STAD (N = 415)",[1],"C (>=5% of tumors above the cutoff, but <20%)"
same,"Target coverage, over-expression category of source gene, TGCT (N = 156)",[1],"C (>=5% of tumors above the cutoff, but <20%)"
344: peptide found in BUB1 (gene looked up) (EYNSDLHQF; listed as Homo sapiens) [compound 344],"Target coverage, over-expression category of source gene, STAD (N = 415)",[1],A (>=50% of tumors above the cutoff)
same,"Target coverage, over-expression category of source gene, TGCT (N = 156)",[1],A (>=50% of tumors above the cutoff)
same,"Target coverage, over-expression category of source gene, UCS (N = 57)",[1],A (>=50% of tumors above the cutoff)
399: peptide found in MET (gene looked up) (SYIDVLPEF; listed as Homo sapiens) [compound 399],"Target coverage, over-expression category of source gene, SKCM",,"C (>=5% of tumors above the cutoff, but <20%)"
same,"Target coverage, over-expression category of source gene, STAD",,"C (>=5% of tumors above the cutoff, but <20%)"
same,"Target coverage, over-expression category of source gene, THCA",,A (>=50% of tumors above the cutoff)
same,"Target coverage, over-expression category of source gene, UVM",Uveal melanoma (N = 80),"B (>=20% of tumors above the cutoff, but <50%)"
347: peptide found in CSNK2A2 (gene looked up) (VYAEVNSL; listed as Homo sapiens) [compound 347],"Target coverage, over-expression category of source gene, UVM (N = 80)",[1],"C (>=5% of tumors above the cutoff, but <20%)"
342: peptide found in APOBEC3B (gene looked up) (NYAFLHRTL; listed as Homo sapiens) [compound 342],"Target coverage, over-expression category of source gene, UCEC (N = 546)",[1],"C (>=5% of tumors above the cutoff, but <20%)"
363: peptide found in SLC7A11 (gene looked up) (SYAELGTTI; listed as Homo sapiens) [compound 363],"Target coverage, over-expression category of source gene, STAD",,"C (>=5% of tumors above the cutoff, but <20%)"
